The target in test [1] is GFP-tagged mPiezo1 (mouse) (UniProt E2JF22). Briefly: co-IP; lysates of cotransfected HEK293T-P1KO cells; protein A magnetic beads coated with rabbit polyclonal anti-flag (10 ug) or anti-GFP (5 ug) antibody, 1 h; washed with PBS-Tween 0.1% at room temperature; immunoblot against the tags; anti-Ki67 as control antibody. (In general: A western blot detects proteins with antibodies after separation by electrophoresis.)

Chains of the proteins cited; added tags and fusions are not shown.
UniProt E2JF22: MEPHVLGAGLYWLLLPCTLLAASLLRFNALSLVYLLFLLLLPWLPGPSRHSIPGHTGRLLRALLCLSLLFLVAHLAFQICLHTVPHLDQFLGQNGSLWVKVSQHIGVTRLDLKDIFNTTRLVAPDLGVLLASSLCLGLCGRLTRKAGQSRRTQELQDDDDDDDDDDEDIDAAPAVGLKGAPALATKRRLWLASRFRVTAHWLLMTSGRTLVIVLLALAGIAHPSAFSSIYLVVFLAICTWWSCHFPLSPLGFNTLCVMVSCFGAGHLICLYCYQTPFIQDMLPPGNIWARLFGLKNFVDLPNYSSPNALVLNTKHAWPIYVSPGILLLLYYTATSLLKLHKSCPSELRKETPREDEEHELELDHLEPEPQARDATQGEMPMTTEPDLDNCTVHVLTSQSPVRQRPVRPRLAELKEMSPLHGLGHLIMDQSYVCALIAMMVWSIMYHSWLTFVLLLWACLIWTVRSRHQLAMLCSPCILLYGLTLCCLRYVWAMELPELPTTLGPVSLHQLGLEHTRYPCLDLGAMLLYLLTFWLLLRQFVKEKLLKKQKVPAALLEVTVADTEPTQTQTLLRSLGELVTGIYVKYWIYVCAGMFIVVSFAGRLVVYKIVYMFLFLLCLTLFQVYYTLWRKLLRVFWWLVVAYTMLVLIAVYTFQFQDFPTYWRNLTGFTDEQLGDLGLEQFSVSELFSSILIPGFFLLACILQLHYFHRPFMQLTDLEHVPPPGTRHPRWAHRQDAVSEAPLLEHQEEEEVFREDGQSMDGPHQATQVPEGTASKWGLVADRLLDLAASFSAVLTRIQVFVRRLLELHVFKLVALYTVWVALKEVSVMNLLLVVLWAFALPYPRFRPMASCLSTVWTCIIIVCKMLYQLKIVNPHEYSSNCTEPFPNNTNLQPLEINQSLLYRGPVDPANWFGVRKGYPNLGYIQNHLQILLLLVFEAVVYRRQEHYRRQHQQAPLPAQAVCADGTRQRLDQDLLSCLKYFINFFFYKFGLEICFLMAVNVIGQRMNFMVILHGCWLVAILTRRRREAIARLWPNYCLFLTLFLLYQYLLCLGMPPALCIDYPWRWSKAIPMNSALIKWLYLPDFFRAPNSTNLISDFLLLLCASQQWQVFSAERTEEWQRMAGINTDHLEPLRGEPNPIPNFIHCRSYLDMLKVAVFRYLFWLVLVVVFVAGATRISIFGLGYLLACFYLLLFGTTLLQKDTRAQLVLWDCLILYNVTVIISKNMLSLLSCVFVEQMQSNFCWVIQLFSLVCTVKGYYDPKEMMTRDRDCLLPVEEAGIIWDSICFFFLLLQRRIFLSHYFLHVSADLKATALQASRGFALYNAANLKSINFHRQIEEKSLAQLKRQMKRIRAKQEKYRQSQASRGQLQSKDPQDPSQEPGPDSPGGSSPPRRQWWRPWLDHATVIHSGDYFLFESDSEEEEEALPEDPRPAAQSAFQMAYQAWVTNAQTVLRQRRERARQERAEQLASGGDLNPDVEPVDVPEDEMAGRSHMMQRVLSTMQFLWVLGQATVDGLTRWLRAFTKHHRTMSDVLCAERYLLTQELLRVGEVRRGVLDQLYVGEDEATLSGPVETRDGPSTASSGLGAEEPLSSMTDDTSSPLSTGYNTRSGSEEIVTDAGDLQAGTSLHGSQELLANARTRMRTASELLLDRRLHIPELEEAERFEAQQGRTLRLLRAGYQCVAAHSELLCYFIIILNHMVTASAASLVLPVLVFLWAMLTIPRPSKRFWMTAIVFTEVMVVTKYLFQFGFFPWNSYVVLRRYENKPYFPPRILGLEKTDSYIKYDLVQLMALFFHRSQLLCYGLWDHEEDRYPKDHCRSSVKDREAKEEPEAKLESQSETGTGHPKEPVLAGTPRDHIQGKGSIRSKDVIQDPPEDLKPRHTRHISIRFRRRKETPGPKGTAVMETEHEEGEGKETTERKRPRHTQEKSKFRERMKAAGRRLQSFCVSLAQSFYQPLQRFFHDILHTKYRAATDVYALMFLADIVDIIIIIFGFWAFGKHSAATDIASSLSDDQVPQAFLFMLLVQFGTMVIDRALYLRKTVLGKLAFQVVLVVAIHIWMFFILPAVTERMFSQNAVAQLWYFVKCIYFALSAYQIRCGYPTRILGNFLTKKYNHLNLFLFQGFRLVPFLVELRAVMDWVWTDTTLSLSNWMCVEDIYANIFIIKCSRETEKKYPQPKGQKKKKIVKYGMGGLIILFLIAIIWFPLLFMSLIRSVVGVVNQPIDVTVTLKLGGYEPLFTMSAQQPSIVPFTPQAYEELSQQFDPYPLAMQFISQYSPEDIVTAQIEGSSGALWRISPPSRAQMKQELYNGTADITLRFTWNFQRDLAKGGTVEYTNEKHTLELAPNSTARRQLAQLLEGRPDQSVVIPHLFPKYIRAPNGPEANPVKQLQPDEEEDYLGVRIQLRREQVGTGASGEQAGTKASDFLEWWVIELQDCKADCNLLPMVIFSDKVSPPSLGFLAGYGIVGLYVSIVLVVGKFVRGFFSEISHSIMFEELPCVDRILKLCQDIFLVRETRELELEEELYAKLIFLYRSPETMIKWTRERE
UniProt Q9JIP4: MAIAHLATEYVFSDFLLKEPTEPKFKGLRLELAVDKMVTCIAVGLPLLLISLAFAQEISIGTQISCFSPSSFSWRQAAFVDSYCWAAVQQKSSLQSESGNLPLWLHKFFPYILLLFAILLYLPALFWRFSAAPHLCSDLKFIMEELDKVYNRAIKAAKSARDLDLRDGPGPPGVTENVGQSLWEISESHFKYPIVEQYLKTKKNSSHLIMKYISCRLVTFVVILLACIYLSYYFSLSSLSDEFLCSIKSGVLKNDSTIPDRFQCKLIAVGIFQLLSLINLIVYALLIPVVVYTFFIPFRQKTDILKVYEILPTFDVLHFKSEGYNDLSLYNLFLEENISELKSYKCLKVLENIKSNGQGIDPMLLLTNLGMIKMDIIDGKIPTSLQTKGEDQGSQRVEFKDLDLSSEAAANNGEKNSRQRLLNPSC

In test [2] the target is flag-tagged mPanx1 (mouse) (UniProt Q9JIP4). The description is as above.
The target in test [3] is Piezo1 (endogenous, normal mouse cholangiocytes) (mouse (endogenous in NMC)) (UniProt E2JF22). Kind of test: co-IP; NMC lysate; Dynabeads coimmunoprecipitation kit with rabbit polyclonal anti-Piezo1 (Thermo Fisher Scientific) or anti-Ki67 covalently linked to magnetic beads; extraction buffer with 150 mM NaCl, 20 mM N-ethylmaleimide, 1.2% Triton X-100; immunoblot with anti-Panx1.

These are yes or no findings as the source states them, for the method shown. In cells and extracts the contact can be indirect. Some results given as binding are weak or reduced against the parent protein; the word gives no strength.

As to “flag-tagged mPanx1 (from UniProt Q9JIP4 1-426)”, the binding result in test [1] is recorded as “binds”.

Regarding “GFP-tagged mPiezo1 (from UniProt E2JF22 1-2547)”, in test [2], the binding entry is listed as “binds”.

With “Panx1 (endogenous, normal mouse cholangiocytes) (from UniProt Q9JIP4 1-426)”, the binding result in test [3] is “binds”.
